{"source": "patent US20240182420A1", "about": "“MICROBIOCIDAL ISONICOTINIC AMIDE DERIVATIVES” (SYNGENTA CROP PROTECTION AG, priority 2021, published 2024)", "note": "Some results were stated once for a whole list of compounds, not compound by compound.", "data": [{"tested_on": "Fusarium culmorum", "assay": "Fusarium culmorum (root rot), liquid culture growth inhibition", "assay_type": "cell-based", "details": "20 ppm; PDB nutrient broth, 24° C., 72 hrs, photometric, vs untreated control", "values": [{"molecule": "Cc1cccc(Oc2cnc(C)cc2C(=O)NCC(F)c2ccc(Cl)cc2Cl)c1", "note": "(stereo not shown) [Compound 1.1, N-[2-(2,4-dichlorophenyl)-2-fluoro-ethyl]-2-methyl-5-(3-methylphenoxy)pyridine-4-carboxamide]", "control of Fusarium culmorum": "at least 80%"}, {"molecule": "Cc1cc(C(=O)NC[C@@H](F)c2ccc(Cl)cc2Cl)c(Oc2cccc(C3CC3)c2)cn1", "note": "[Compound 1.41, 5-(3-cyclopropyl-phenoxy)-N-[(2S)-2-(2,4-dichlorophenyl)-2-fluoro-ethyl]-2-methyl-pyridine-4-carboxamide]", "control of Fusarium culmorum": "at least 80%"}, {"molecule": "O=C(NCC(F)c1ccc(Cl)cc1Cl)c1cc(Cl)ncc1Oc1ccccc1", "note": "(stereo not shown) [Compound 1.67, 2-chloro-N-[2-(2,4-dichlorophenyl)-2-fluoro-ethyl]-5-phenoxy-pyridine-4-carboxamide]", "control of Fusarium culmorum": "at least 80%"}, {"molecule": "Cc1cncc(Oc2cccc(C3CC3)c2)c1C(=O)NC[C@H](F)c1ccc(Cl)cc1Cl", "note": "[Compound 1.94, 3-(3-cyclopropyl-phenoxy)-N-[(2R)-2-(2,4-dichlorophenyl)-2-fluoro-ethyl]-5-methyl-pyridine-4-carboxamide]", "control of Fusarium culmorum": "at least 80%"}]}]}
